For part of these data: Where a protein sequence is shown, tags need not be part of it. For part of these data: Construct, isoform or probe ends are uncertain for at least one entry.
Columns and labels:
Assay in all cases: enzyme reaction in vitro
[1] = target: T1, BglII (UniProt Q45488); details: electrochemical turn-on; PURExpress, 37 C; little crosstalk; protein translated in vitro; label: 3' methylene blue on reporter; only the site is given
T1 sequence (looked up, limits assumed): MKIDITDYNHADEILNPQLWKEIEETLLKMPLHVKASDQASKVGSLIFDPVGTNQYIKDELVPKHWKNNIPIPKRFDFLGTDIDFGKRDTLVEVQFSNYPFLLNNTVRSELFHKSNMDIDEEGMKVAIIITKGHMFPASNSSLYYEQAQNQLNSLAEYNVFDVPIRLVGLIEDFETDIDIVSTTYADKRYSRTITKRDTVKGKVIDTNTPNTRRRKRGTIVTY

The chains behind the UniProt entries cited, without tags or fusion partners. Where a name states a change or a piece, a line headed by the entry shows the natural chain unless it says otherwise.
UniProt P04390: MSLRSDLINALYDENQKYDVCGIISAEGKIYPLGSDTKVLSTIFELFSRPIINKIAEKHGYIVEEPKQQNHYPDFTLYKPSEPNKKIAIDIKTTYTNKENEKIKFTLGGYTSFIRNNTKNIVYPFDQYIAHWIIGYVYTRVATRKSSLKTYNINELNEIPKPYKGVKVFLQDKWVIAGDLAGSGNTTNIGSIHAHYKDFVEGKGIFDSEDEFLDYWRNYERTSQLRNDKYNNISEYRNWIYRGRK

[2] = system: NcoI; details: electrochemical turn-on; PURExpress, 37 C; little crosstalk; protein translated in vitro; label: 3' methylene blue on reporter; only the site is given
[3] = system: AciI; details: electrochemical turn-on; PURExpress, 37 C; orthogonal to other nine duplexes (FIG. 3G); protein translated in vitro; label: 3' methylene blue on reporter; only the site is given
[4] = system: ClaI; details: electrochemical turn-on; PURExpress, 37 C; little crosstalk; protein translated in vitro; label: 3' methylene blue on reporter; only the site is given
[5] = system: BanII; details: electrochemical turn-on; PURExpress, 37 C; little crosstalk; protein translated in vitro; label: 5' methylene blue on reporter; only the site is given
[6] = target: T2, BstEII (UniProt E5Q8U2); details: electrochemical turn-on; PURExpress, 37 C; little crosstalk; protein translated in vitro; label: 3' methylene blue on reporter; only the site is given
T2 sequence (looked up, limits assumed): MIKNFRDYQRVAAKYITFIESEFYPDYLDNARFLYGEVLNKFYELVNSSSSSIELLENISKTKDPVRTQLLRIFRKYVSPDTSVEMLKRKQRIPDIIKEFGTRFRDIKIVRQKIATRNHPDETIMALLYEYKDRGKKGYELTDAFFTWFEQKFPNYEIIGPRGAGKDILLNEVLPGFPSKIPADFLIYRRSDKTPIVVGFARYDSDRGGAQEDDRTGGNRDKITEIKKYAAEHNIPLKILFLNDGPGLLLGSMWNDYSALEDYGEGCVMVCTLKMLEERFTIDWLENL

[7] = target: EcoRV (UniProt P04390); details: electrochemical turn-on; PURExpress, 37 C; little crosstalk; protein translated in vitro; label: 3' methylene blue on reporter; only the site is given
[8] = target: T3, HincII (UniProt P17743); details: electrochemical turn-on; PURExpress, 37 C; little crosstalk; protein translated in vitro; label: 3' methylene blue on reporter; only the site is given
T3 sequence (looked up, limits assumed): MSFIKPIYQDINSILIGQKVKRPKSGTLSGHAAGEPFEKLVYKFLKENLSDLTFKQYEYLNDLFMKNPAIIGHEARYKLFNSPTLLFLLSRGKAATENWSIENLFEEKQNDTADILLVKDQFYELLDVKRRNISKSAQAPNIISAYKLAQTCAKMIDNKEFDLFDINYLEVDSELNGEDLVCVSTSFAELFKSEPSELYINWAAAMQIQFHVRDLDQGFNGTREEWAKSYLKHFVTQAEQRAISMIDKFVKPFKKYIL

[9] = system: BsaAI; details: electrochemical turn-on; PURExpress, 37 C; little crosstalk; protein translated in vitro; label: 3' methylene blue on reporter; only the site is given

For “ACTGGACGTGCTTAGATCTAGTTCTCAAGC (double strand) [BglII reporter/inhibitor duplex]”, the “activity on this sequence” value [1] was “active”.

With “CCATATGCTGCACCATGGTCACGTGTTCG (double strand) [NcoI reporter/inhibitor duplex]” the “activity on this sequence” value [2] was “active”.

With “CGGACGTGAACCGCGGTGTACTGCTAG / CTAGCAGAACACCGCGGTTCACGTCCG [AciI reporter/inhibitor duplex]” the “activity on this sequence” value [3] was “active”.

In the case of “CGGTGCTGAGTCATCGATTGTTCAGTTGC / GCAACTGTACAATCGATGACTCAGCACCG [ClaI reporter/inhibitor duplex]”, the “activity on this sequence” value [4] is reported as “active”.

“GCATACTCGAGGAGCCCCACGTTCTCAGT (double strand) [BanII reporter/inhibitor duplex]” was tested, and the “activity on this sequence” value [5] was “active”.

For “GCGAGGTCATCGGGTCACCATGACGATGTG / CACATCGACATGGTGACCCGATGACCTCGC [BstEII reporter/inhibitor duplex]”, the “activity on this sequence” value [6] was “active”.

With “GTCTCCTCGACGGATATCAAATCCAGGCA / TGCCTGGATTAGATATCCGTCGAGGAGAC [EcoRV reporter/inhibitor duplex]” the “activity on this sequence” value [7] was “active”.

For “TCGCTCAGGATCGTCAACAGTACCTCGAC / GTCGAGGTAATGTTGACGATCCTGAGCGA [HincII reporter/inhibitor duplex]”, the “activity on this sequence” value [8] was “active”.

With “TGCACGTGAGCTCACGTATGATCCCTACG / CGTAGGGATAATACGTGAGCTCACGTGCA [BsaAI reporter/inhibitor duplex]” the “activity on this sequence” value [9] was “active”.

Reference: US20230175044
